From PubChem BioAssay AID256 (DTP/NCI, 2004) come the findings set out here.

The test deals with CD2F1 mice, L1210 leukemia ip, survival T/C. The test can be described thus: NCI In Vivo Anticancer Drug Screen. Data for tumor model L1210 Leukemia (intraperitoneal) in CD2F1 (CDF1) mice. Conditions: higher T/C = longer survival. The essentials:
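Compound-dosed mice with transplantable tumor versus matched vehicle controls; endpoint ratio T/C reported.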

Where [1] appears, read: T/C endpoint: mean survival time, dose: 100.0 mg/kg/injection, schedule: Q01DX001 (ip), vehicle: other.
[2] abbreviates: T/C endpoint: mean survival time, dose: 200.0 mg/kg/injection, schedule: Q01DX009 (ip), vehicle: saline with Tween-80.
Where [3] appears, read: T/C endpoint: mean survival time, dose: 400.0 mg/kg/injection, schedule: Q01DX009 (ip), vehicle: saline with Tween-80.
Setting [4] is: T/C endpoint: mean survival time, dose: 400.0 mg/kg/injection, schedule: Q04DX002 (ip), vehicle: saline with Tween-80.
The mark [5] stands for this setting: T/C endpoint: mean survival time, dose: 200.0 mg/kg/injection, schedule: Q04DX002 (ip), vehicle: saline with Tween-80.
Setting [6] is: T/C endpoint: mean survival time, dose: 50.0 mg/kg/injection, schedule: Q04DX003 (ip), vehicle: saline with Tween-80.
[7] abbreviates: T/C endpoint: mean survival time, dose: 100.0 mg/kg/injection, schedule: Q04DX003 (ip), vehicle: saline with Tween-80.
Where [8] appears, read: T/C endpoint: mean survival time, dose: 400.0 mg/kg/injection, schedule: Q01DX001 (ip), vehicle: saline with Tween-80.

Molecules are shown by their SMILES. The list is a part of this screen's results and no random one: it gathers tests that were run many times, whatever their T/C, doses with no T/C, and many T/C values between a quarter and a half above the control. Further doses and runs are listed elsewhere. T/C gives the treated animals as a percentage of the vehicle group. Some entries give survivors of the animals treated and no T/C: the source files T/C as zero there, which appears to mark a toxic dose or a test without result, not a measured value. Some doses without a T/C left all or most animals alive at the check, yet need not have been tolerated: survival well below the control is almost never listed, so the zero probably covers shortened survival too. Counts of survivors are from the toxicity check (mostly the fifth day) where no day follows; animals may have died later. Schedules are NCI's codes, read here as Q, the interval in days (D) or hours (H), X, the number of doses. Some entries were tested several times; the values are given in rising order. For survival time, the PubChem record calls one and a half times the control and up active, and a quarter to a half above the control has no call in these data; cut-offs in other NCI protocols can differ.

Take `Cc1ccc(NC(=O)N(CCCl)N=O)cc1C`: the T/C was 128 % of control (T/C endpoint: mean survival time, dose: 2.5 mg/kg/injection, schedule: Q01DX001 (ip), vehicle: other) and 130 % of control (T/C endpoint: mean survival time, dose: 3.8 mg/kg/injection, schedule: Q01DX001 (ip), vehicle: other). Also, the survivor count was 5 of 6 (T/C endpoint: mean survival time, dose: 44.0 mg/kg/injection, schedule: Q01DX001 (ip), vehicle: other); 3 of 6 (T/C endpoint: mean survival time, dose: 66.0 mg/kg/injection, schedule: Q01DX001 (ip), vehicle: other); 0 of 6 under setting [1].

As for `Cc1ccc(C2(c3ccccc3)OC(=O)c3ccccc32)cc1` (centres undefined), the survivor count by setting is: under setting [2], 6 of 6; under setting [3], 5 of 6.

`COC(=O)c1ccc(SCC2=Nc3c(nc(N)[nH]c3=O)NCC2)cc1`: the survivor count (T/C endpoint: mean survival time, dose: 24.0 mg/kg/injection, schedule: Q01DX009 (ip), vehicle: distilled water + Tween-80) is given as 6 of 6.

For `COc1cc(-c2ccncc2)nc(OC)n1`, the survivor count under setting [4] was 0 of 3.

Consider `NC1CCCCC1N.O=C1C=C/C(=C(/c2ccc(O)c(Br)c2)c2ccccc2S(=O)(=O)[O-])C=C1Br.O=C1C=C/C(=C(/c2ccc(O)c(Br)c2)c2ccccc2S(=O)(=O)[O-])C=C1Br.[Pt+4]`, for which the survivor count reads like this: (T/C endpoint: median survival time, dose: 50.0 mg/kg/injection, schedule: Q04DX003 (ip), vehicle: saline) 3 of 6; (T/C endpoint: median survival time, dose: 100.0 mg/kg/injection, schedule: Q04DX003 (ip), vehicle: saline) 3 of 6; (T/C endpoint: median survival time, dose: 200.0 mg/kg/injection, schedule: Q04DX003 (ip), vehicle: saline) 0 of 6.

`Cc1cc(S(=O)(=O)F)cc(Cl)c1S`: the survivor count is, setting by setting: under setting [5], 1 of 3; under setting [4], 0 of 3.

Regarding `CCCCOP(=O)(OC)OCCCC`, the survivor count under setting [4] was 0 of 3.

For the molecule `S=c1nc[nH]c2nncnc12`, the survivor count is, setting by setting: under setting [1], 0 of 6; (T/C endpoint: mean survival time, dose: 200.0 mg/kg/injection, schedule: Q01DX001 (ip), vehicle: other) 0 of 6; (T/C endpoint: mean survival time, dose: 400.0 mg/kg/injection, schedule: Q01DX001 (ip), vehicle: other) 0 of 6.

Take `CC(C)(C)c1cc([N+](=O)[O-])cc([N+](=O)[O-])c1O`: the survivor count is, setting by setting: (T/C endpoint: mean survival time, dose: 12.5 mg/kg/injection, schedule: Q04DX003 (ip), vehicle: saline with Tween-80) 6 of 6; (T/C endpoint: mean survival time, dose: 25.0 mg/kg/injection, schedule: Q04DX003 (ip), vehicle: saline with Tween-80) 2 of 6; under setting [6], 0 of 6; under setting [7], 0 of 6; (T/C endpoint: mean survival time, dose: 200.0 mg/kg/injection, schedule: Q04DX003 (ip), vehicle: saline with Tween-80) 0 of 6; (T/C endpoint: mean survival time, dose: 400.0 mg/kg/injection, schedule: Q04DX003 (ip), vehicle: saline with Tween-80) 6 of 6.

Consider `Nc1nc2c(ncn2CCCc2ccccc2)c(=O)[nH]1`, for which the survivor count under setting [8] was 3 of 6.

For the molecule `COC1=C(N)C(=O)c2nc(-c3nc(C(=O)O)c(C)c(-c4ccc(OC)c(OC)c4O)c3N)ccc2C1=O`, the survivor count (T/C endpoint: mean survival time, dose: 1.0 mg/kg/injection, schedule: Q01DX009 (ip), vehicle: saline with Tween-80) is 3 of 6 and the survivor count (T/C endpoint: mean survival time, dose: 2.0 mg/kg/injection, schedule: Q04DX003 (ip), vehicle: saline with Tween-80) is 3 of 6.

Regarding `CNC(=O)CCl`, the survivor count runs as follows: (T/C endpoint: mean survival time, dose: 200.0 mg/kg/injection, schedule: Q01DX009 (ip), vehicle: saline) 1 of 6; (T/C endpoint: mean survival time, dose: 400.0 mg/kg/injection, schedule: Q01DX009 (ip), vehicle: saline) 0 of 6.

Turning to `Cc1c(C=[N+]2CCCCC2)c2ccccc2n1C`, the T/C under setting [5] was 137 % of control.

`CCOC(=O)Nc1cc(NCc2ccccc2)c([N+](=O)[O-])c(N)n1`: the survivor count runs as follows: (T/C endpoint: mean survival time, dose: 100.0 mg/kg/injection, schedule: Q01DX001 (ip), vehicle: Klucel (hydroxypropylcellulose) (HPC)) 5 of 6; (T/C endpoint: mean survival time, dose: 200.0 mg/kg/injection, schedule: Q01DX001 (ip), vehicle: Klucel (hydroxypropylcellulose) (HPC)) 6 of 6; (T/C endpoint: mean survival time, dose: 400.0 mg/kg/injection, schedule: Q01DX001 (ip), vehicle: Klucel (hydroxypropylcellulose) (HPC)) 6 of 6.

`O=C1C(Cl)=C(NCC2CCC(CO)CC2)C(=O)c2ccccc21` (centres undefined): the survivor count by setting is: under setting [6], 0 of 6; under setting [7], 0 of 6.

As to `N#Cc1cnn2ccn(C3OC(COC(=O)c4ccccc4)C(OC(=O)c4ccccc4)C3OC(=O)c3ccccc3)c12` (centres undefined), the survivor count (T/C endpoint: median survival time, dose: 400.0 mg/kg/injection, schedule: Q01DX005 (ip), vehicle: saline with Tween-80) is 6 of 6.

With `C=C(C)C(=O)OCCN(C)C` (tested in a mixture with another compound), the survivor count under setting [3] is listed as 3 of 6.

Take `O=C(Nc1ccc(Cl)c(Cl)c1)c1ccc(Cl)c(Cl)c1`: the survivor count under setting [5] is 3 of 3.

For `CC([NH-])C(C)[NH-].[Cl][Pt+2][Cl]` (centres undefined), the T/C is 126 % of control (T/C endpoint: mean survival time, dose: 3.12 mg/kg/injection, schedule: Q04DX002 (ip), vehicle: Klucel (hydroxypropylcellulose) (HPC)); 129 and 135 % of control (T/C endpoint: mean survival time, dose: 6.25 mg/kg/injection, schedule: Q04DX002 (ip), vehicle: Klucel (hydroxypropylcellulose) (HPC)); 148 % of control (T/C endpoint: mean survival time, dose: 12.5 mg/kg/injection, schedule: Q04DX002 (ip), vehicle: Klucel (hydroxypropylcellulose) (HPC)).

Consider `CCOC(=O)CC/C=C\Cc1c(OC)c(C)c2c(c1OC(=O)Nc1ccc(C(C)=O)cc1)C(=O)OC2`, for which the T/C under setting [5] was 137 % of control; the T/C under setting [4] is 133 % of control; the T/C (T/C endpoint: median survival time, dose: 100.0 mg/kg/injection, schedule: Q04DX002 (ip), vehicle: saline with Tween-80) was 125 % of control; the T/C (T/C endpoint: median survival time, dose: 200.0 mg/kg/injection, schedule: Q04DX002 (ip), vehicle: saline with Tween-80) is 140 % of control; the T/C (T/C endpoint: median survival time, dose: 400.0 mg/kg/injection, schedule: Q04DX002 (ip), vehicle: saline with Tween-80) was 143 % of control.

With `NC(=S)c1ccc(OCCCc2ccccc2)cc1`, the survivor count reads like this: (T/C endpoint: mean survival time, dose: 100.0 mg/kg/injection, schedule: Q01DX009 (ip), vehicle: saline with Tween-80) 0 of 6 and 1 of 6; under setting [2], 0 of 6; under setting [3], 0 of 6.

On to `c1ccc(NCc2nc3ccccc3[nH]2)cc1`, for which the survivor count is 3 of 6 (T/C endpoint: mean survival time, dose: 50.0 mg/kg/injection, schedule: Q01DX005 (ip), vehicle: water); 0 of 6 (T/C endpoint: mean survival time, dose: 100.0 mg/kg/injection, schedule: Q01DX005 (ip), vehicle: water); 0 of 6 (T/C endpoint: mean survival time, dose: 200.0 mg/kg/injection, schedule: Q01DX005 (ip), vehicle: water).

For `CC(C)(C)C(NO)C(O)N1CCCCC1` (centres undefined), the survivor count (T/C endpoint: mean survival time, dose: 400.0 mg/kg/injection, schedule: Q01DX001 (ip), vehicle: saline) was 1 of 6.

Take `C[As](C)SCC1OC(n2ccc(=O)[nH]c2=O)CC1O` (centres undefined): for the setting “T/C endpoint: median survival time, dose: 200.0 mg/kg/injection, schedule: Q01DX005 (ip), vehicle: distilled water + Tween-80”, the survivor count is recorded as 0 of 6.

As to `Nc1ccc2nc3ccc(N)cc3[n+](-c3ccccc3)c2c1`, the survivor count by setting is: (T/C endpoint: mean survival time, dose: 18.0 mg/kg/injection, schedule: Q01DX009 (ip), vehicle: saline) 3 of 6; (T/C endpoint: mean survival time, dose: 27.0 mg/kg/injection, schedule: Q01DX009 (ip), vehicle: saline) 1 of 6; (T/C endpoint: mean survival time, dose: 40.0 mg/kg/injection, schedule: Q01DX009 (ip), vehicle: saline) 0 of 6.

As for `O=c1cn[nH]c2c(Cl)cccc12`, under “T/C endpoint: mean survival time, dose: 400.0 mg/kg/injection, schedule: Q01DX001 (ip), vehicle: carboxymethylcellulose (CMC)”, the survivor count is 1 of 6.

Consider `CCCCSP(=O)(CCl)SCCCC`, for which the survivor count reads like this: (T/C endpoint: mean survival time, dose: 100.0 mg/kg/injection, schedule: Q04DX002 (ip), vehicle: saline with Tween-80) 3 of 3; under setting [5], 1 of 3; under setting [4], 0 of 3.

Take `OCc1ccc2[n+](c1)CCc1c-2[nH]c2ccccc12`: the survivor count runs as follows: (T/C endpoint: mean survival time, dose: 100.0 mg/kg/injection, schedule: Q01DX001 (ip), vehicle: saline with Tween-80) 6 of 6; (T/C endpoint: mean survival time, dose: 200.0 mg/kg/injection, schedule: Q01DX001 (ip), vehicle: saline with Tween-80) 0 of 6; under setting [8], 0 of 6.
